Test results: PubChem BioAssay AID504444 (National Center for Advancing Translational Sciences (NCATS), 2011)
In all, about 360,000 compounds went through this assay and about 7,500 (2.1%) were called active. The inconclusive results got no clear call from the source; some entries with a clear call stand among them for comparison. Calls follow the shape of the dose curve; as a rule, active = well fitted inhibition curve with a large enough effect; inconclusive = small, poorly fitted or top-dose-only effect, or effect the other way; inactive = flat fitted curve, though single readings scatter. Potencies beside an inconclusive call are fits to weak or partial responses and may not hold up.

Experiment: Nrf2 qHTS screen for inhibitors; also: nearly all actives have a fitted effect of over 60% in size
Settings: A549 ARE-Fluc reporter, luciferase luminescence, 18-24 h; activity change, negative = inhibition: at 46 µM (top of the series)
Procedure, shortened: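 Nrf2 activity is the BugLite luminescence, read 15 min after reagent at room temperature, following CellTiter-Fluor cytotoxicity readout (30 min, 37C). Compound titrations were applied for 18-24 h to 5000 A549 ARE_Fluc cells/well in 5% FBS OPTI-MEM.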
% is scaled to controls: 0 for no effect and ±100 for the full control effect; potency is read from the fitted curve at half-maximal effect.

SMILES | Potency | activity change, negative = inhibition
CCn1ccnc1CN(C)Cc1cn(-c2ccc(C)cc2)nc1-c1ccc(F)cc1 | inconclusive: 29.1 µM [falling, single point] | 
O=C(CNC(=O)c1ccco1)Nc1cc(Cl)ccc1N1CCOCC1 | inactive | 
Cc1ccc(-c2noc(CSc3nnc(Cc4ccccc4)n3-c3cccc(C)c3)n2)cc1 | active: 25.9 µM | 
O=C(NCC(c1cccnc1)N1CCc2ccccc2C1)C(=O)Nc1ccc(Cl)cc1 (stereo not drawn) | inconclusive: 6.51 µM [falling, single point] | 
Fc1ccc(-c2cn3ccccc3n2)cc1 | inconclusive: 1.16 µM [activator, partial curve] | 
CCc1noc(C)c1C(=O)OCC(=O)c1ccccc1OC | inconclusive: 20.6 µM [falling, partial curve, poor fit] | 
COC(=O)CCc1sc(Nc2ccccc2)nc1-c1ccc(OC)cc1 | inconclusive: 8.2 µM [activator, partial curve] | 
Cc1cc(C)c(NC(=O)Cn2c(=O)n(Cc3ccco3)c(=O)c3ccc(C(=O)NC4CCCC4)cc32)c(C)c1 | inactive | 
Fc1c(F)c(F)c(N/N=C/c2c[nH]c3ccccc23)c(F)c1F | inactive | 
CC(=O)c1ccc(N2CCN(S(=O)(=O)c3ccc4c(c3)CC(C)N4C(C)=O)CC2)cc1 (stereo not drawn) | active: 5.8 µM | 
Cc1cccc(NCC(=O)N/N=C\c2c[nH]c3ccccc23)c1 | inconclusive: 3.66 µM [activator, full curve, poor fit] | 
COCc1cc(=O)[nH]c(/N=C(\N)Nc2c(F)cccc2F)n1 | inactive | 
COc1ccc(S(=O)(=O)Cc2ccc(C(=O)N3CCN(c4cccc(C)c4)C(C)C3)o2)cc1 (stereo not drawn) | inactive | 
COC(=O)C1=NN(N=O)C2(CC(=O)N(c3cc(C)cc(C)c3)C2=O)C1 (stereo not drawn) | inconclusive: 4.11 µM [falling, full curve, poor fit] | 
COCc1nnc(NC(=O)c2cccc(NC(=O)C(C)C)c2)s1 | inconclusive: 32.6 µM [activator, single point] | 
CC(=O)c1ccc(NC(=O)c2sc3nc(N4CCOCC4)c4c(c3c2N)CCCC4)cc1 | inactive | 
Cc1ccc(-c2cc(C(=O)Nc3cnn(C45CC6CC(CC(C6)C4)C5)c3)no2)cc1 | inconclusive: 25.9 µM [falling, single point] | 
O=C(Nc1cccc(F)c1)c1ccco1 | inactive | 
Cc1ccc(C)c(NC(=S)N/N=C2\CCc3ccccc32)c1 | inactive | 
COc1ccc(C/C(N)=N/OC(=O)Cc2ccccc2)cc1 | inconclusive: 29.1 µM [falling, partial curve, poor fit] | 
CCOC(=O)c1cc(NC(=O)c2ccc(C)cc2)c(=O)n2c1oc1ccc(Cl)cc12 | inactive | 
Fc1cccc(CNc2ncnc3cc(Cl)ccc23)c1F | active: 18.4 µM | 
CC1CCCC(NC(=O)c2ccc3c(c2)OCO3)C1C (stereo not drawn) | inconclusive: 2.91 µM [activator, full curve] | 

SMILES | Potency | activity change, negative = inhibition
COC(=O)c1cc(C(=O)c2ccc(Cl)cc2)n2c(=O)/c(=C\N(C)C)sc12 | inconclusive: 8.2 µM [falling, partial curve, poor fit] | 
Cc1cc(C(=O)NC2CCCc3c2cnn3-c2cccc(C)c2C)c(C)o1 (stereo not drawn) | active: 3.66 µM | 
COc1ccc(N(Cc2ccccc2)S(=O)(=O)c2cccc(C(=O)Nc3ncccc3C)c2)cc1 | active: 18.4 µM | 
COc1ccc(NS(=O)(=O)c2cc(OC)ccc2NC(=O)c2cc(C)oc2C)cc1 | inconclusive: 6.51 µM [falling, full curve, poor fit] | 
CCOC(CNC(=O)C1CCN(S(=O)(=O)c2ccc3nc4c(c(C(=O)O)c3c2)CCCCC4)CC1)OCC | inactive | 
CC(C)C(=O)Nc1ccc(NC(=O)c2ccccn2)cn1 | inconclusive: 29.1 µM [falling, single point] | 
CN1CCN(c2ccc(C(=O)c3ccc(F)cc3)cc2)CC1 | inconclusive: 4.11 µM [activator, full curve] | 
CCOc1ccc2nc(N3C(=O)CNC3=S)sc2c1 | inconclusive: 2.06 µM [activator, full curve] | 
Cn1c(C(=O)N2CCN(c3ccc([N+](=O)[O-])cc3)CC2)cc2c(=O)[nH]c3ccccc3c21 | inconclusive: 1.46 µM [activator, full curve] | 
c1cc(C2CCCCC2)ccc1Oc1nc(N2CCOCC2)nc(N2CCOCC2)n1 | inconclusive: 0.116 µM [falling, full curve, poor fit] | 
COCCN(C(=O)c1ccco1)c1nc(-c2ccccc2)cs1 | inconclusive: 18.4 µM [activator, single point] | 
CCOC(=O)c1noc2ncnc(N3CCC(C)CC3)c12 | inconclusive: 29.1 µM [falling, single point] | 
CC1(C)Cc2nc(Cl)c(C(N)=O)cc2CO1 | inconclusive: 4.11 µM [falling, full curve] | 
CC[C@H]1C(c2ccc(F)cc2)=NN(c2ccccc2)[C@@H]1CO | inconclusive: 14.6 µM [activator, partial curve] | 
COCCn1c(-c2ccc(C)cc2)nc2c(c(=O)c3ccccc3n2C)c1=O | inconclusive: 29.1 µM [activator, single point] | 
Cc1nc(S(=O)(=O)NC2CCCCC2)c(C#N)c(C)c1Cl | inactive | 
CCOc1cc(/C=C/C(=O)c2ccc(C)cc2)ccc1OCC(=O)N(C)C | inactive | 
COc1ccccc1CNC(=O)COC(=O)[C@H](Cc1c[nH]c2ccccc12)NC(=O)c1cccs1 | inconclusive: 23.1 µM [falling, partial curve, poor fit] | 
Cc1cccc(Cn2cc3c(=O)n(CC(=O)Nc4ccc(C)c(F)c4)nc-3c3cc(F)ccc32)c1 | inactive | 
O=C(/C=C/c1cn(-c2ccccc2)nc1-c1ccc2c(c1)OCCO2)NCCO | inactive | 
C=CCn1c(SC(F)F)nc2scc(-c3ccco3)c2c1=O | inconclusive: 11.6 µM [falling, partial curve, poor fit] | 
CCC1=Nc2cc(C(=O)NCCN3CCCC3)ccc2Sc2ccccc21 | inconclusive: 18.4 µM [falling, single point] | 
CCN(CC(=O)Nc1sc2c(c1C#N)CCC(C)C2)Cc1nc2ccccc2c(=O)[nH]1 (stereo not drawn) | inconclusive: 5.17 µM [activator, full curve] | 

Looked up by structure from the list above (four):
SMILES | Potency | activity change, negative = inhibition
CCOC(CNC(=O)C1CCN(S(=O)(=O)c2ccc3nc4c(c(C(=O)O)c3c2)CCCCC4)CC1)OCC | inactive | 
CCN(CC(=O)Nc1sc2c(c1C#N)CCC(C)C2)Cc1nc2ccccc2c(=O)[nH]1 (stereo not drawn) | inconclusive: 5.17 µM [activator, full curve] | 
Cc1nc(S(=O)(=O)NC2CCCCC2)c(C#N)c(C)c1Cl | inactive | 
COC(=O)c1cc(C(=O)c2ccc(Cl)cc2)n2c(=O)/c(=C\N(C)C)sc12 | inconclusive: 8.2 µM [falling, partial curve, poor fit] | 

Continued:

SMILES | Potency | activity change, negative = inhibition
CSc1ccc(-c2ccco2)nn1 | inconclusive: 5.8 µM [activator, full curve] | 
O=C(c1sc2ccccc2c1Cl)N(Cc1ccccc1Cl)C1CCS(=O)(=O)C1 (stereo not drawn) | inconclusive: 25.9 µM [falling, single point] | 
COc1ccc([C@H]2[C@H](c3ccccc3)C(=O)N2Cc2ccccc2)cc1COc1ccc(NC(C)=O)cc1 | inconclusive: 29.1 µM [falling, single point] | 
COc1ccc(NC(=O)c2nc[nH]c2C(=O)N[C@@H](C)c2ccccc2)cc1 | inconclusive: 29.1 µM [falling, single point] | 
COc1ccccc1N1CCN(C(=O)CN(Cc2ccc(Cl)cc2)S(C)(=O)=O)CC1 | active: 23.1 µM | 
O=C(NCCN1CCOCC1)c1ccc(Cl)c(S(=O)(=O)N2CCCCC2)c1 | inactive | 
CN(CC(=O)Nc1cccc(C(F)(F)F)c1)S(=O)(=O)c1cccs1 | inconclusive: 29.1 µM [falling, partial curve, poor fit] | 
COC(=O)C(C)Sc1ncnc2c1c(-c1ccccc1)cn2-c1ccc(F)cc1 (stereo not drawn) |  | inactive: -17.7% [at 9.27 µM]
Cc1cccc(C)c1-n1ncc(C(=O)N2CCN(c3ccccc3)CC2)c1C1CCN(C(=O)OC(C)(C)C)CC1 | inactive | 
CC(Oc1ccc(Br)cc1Cl)C(=O)Nc1ccncc1 (stereo not drawn) | active: 20.6 µM | 
CCOc1ccc(C(=O)Nc2cccc(C(=O)O)c2)cc1Cl | inconclusive: 18.4 µM [activator, partial curve] | 
COc1ccc(C2=Nn3c(nnc3-c3ccccc3OC)SC2)cc1OC | inconclusive: 2.06 µM [activator, partial curve] | 
C[C@@]12C(=O)N(Cc3ccccc3)CC(=O)N1[C@H]1c3cc(Cl)ccc3OC[C@@H]1[C@@H]2c1ccccc1 | inconclusive: 23.1 µM [falling, single point] | 
CCOc1ccccc1NC(=O)c1cc2c(=O)oc3ccccc3c2s1 | inconclusive: 20.6 µM [activator, partial curve, poor fit] | 
Cc1ccc(NC(=O)Nc2nnc(-c3ccccc3F)s2)cc1 | inconclusive: 25.9 µM [activator, single point] | 
CCCS(=O)(=O)N1CCN(CCN2C(=O)c3cccc4cccc(c34)C2=O)CC1 | inconclusive: 10.3 µM [falling, single point] | 
O=C(c1ccc(CSc2nc3ccncc3n2Cc2cccc(F)c2)cc1)N1CCCCCC1 | inconclusive: 29.1 µM [falling, single point] | 
Cc1ccc(NC(=O)CN2C(=O)NC(Cc3c[nH]c4ccccc34)C2=O)cc1S(=O)(=O)N1CCCCC1 (stereo not drawn) | inconclusive: 29.1 µM [falling, single point] | 
CCn1ncc(Cl)c1C(=O)NC(=S)Nc1c(C)cc(C)cc1[N+](=O)[O-] | inactive | 
COc1ccc(OC)c(NC(=O)c2c(NCc3cccs3)sc3c2CCCC3)c1 | inconclusive: 14.6 µM [falling, partial curve] | 
COCCN1C(=O)c2[nH]nc(-c3cc(C)ccc3O)c2C1c1ccc(C(C)C)cc1 (stereo not drawn) | inactive | 
CCc1ccccc1NC(=O)c1cc(S(=O)(=O)N2CCCC2)cn1C | inconclusive: 14.6 µM [falling, single point] | 
